# From the supplement of paper PMC8728848
# The other results are listed elsewhere or left out.
# B1: XTP3-B-MRH1 (Homo sapiens), Q96DZ1 (protein)
# chain: LLEPLFKQSSCSYRIESYWTYEVCHGKHIRQYHEEKETGQKINIHEYYLGNMLAKNLLFEKEREAEEKEKSNEIPTKNIEGQMTPYYPVGMGNGTPCSLKQNRPRSSTVMYICHPESKHEILSVAEVTTCEYEVVILTPLLCSHPKYRFRA
# How the values were obtained:
# Test in all cases: glycan array binding signal (z-score within array); higher = stronger binding
# Conditions in all cases: glycan notation: IUPAC condensed, linker removed
# Neu5Ac(a2-3)Gal = target: Neu5Ac(a2-3)Gal
# How it was run: (§1)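 The binding signal is a Z-score computed within each array and averaged over linkers. Arrays of the same protein sequence at different concentrations or buffers were also averaged together. Data originate from 3228 arrays in the Consortium for Functional Glycomics database, kept only where the protein sequence was available.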
# [1] = target: Neu5Ac(a2-3)Gal(b1-3)GalNAc
# How it was run: as §1
# [2] = target: Neu5Ac(a2-3)Gal(b1-3)GalNAc(b1-3)Gal(a1-4)Gal(b1-4)Glc
# How it was run: as §1
# [3] = target: Neu5Ac(a2-3)Gal(b1-3)GalNAc(b1-4)Gal(b1-4)Glc
# How it was run: as §1
# [4] = target: Neu5Ac(a2-3)Gal(b1-3)GalNAc(b1-4)[Neu5Ac(a2-3)]Gal(b1-4)Glc
# How it was run: as §1
# [5] = target: Neu5Ac(a2-3)Gal(b1-3)GalNAc(b1-4)[Neu5Ac(a2-8)Neu5Ac(a2-3)]Gal(b1-4)Glc
# How it was run: as §1
# [6] = target: Neu5Ac(a2-3)Gal(b1-3)GalNAc6S
# How it was run: as §1
# [7] = target: Neu5Ac(a2-3)Gal(b1-3)GlcNAc
# How it was run: as §1
# [8] = target: Neu5Ac(a2-3)Gal(b1-3)GlcNAc(b1-2)Man
# How it was run: as §1
# [9] = target: Neu5Ac(a2-3)Gal(b1-3)GlcNAc(b1-2)Man(a1-3)[GlcNAc(b1-4)][Neu5Ac(a2-3)Gal(b1-3)GlcNAc(b1-2)Man(a1-6)]Man(b1-4)GlcNAc(b1-4)GlcNAc
# How it was run: as §1
# [10] = target: Neu5Ac(a2-3)Gal(b1-3)GlcNAc(b1-2)Man(a1-3)[Neu5Ac(a2-3)Gal(b1-3)GlcNAc(b1-2)Man(a1-6)]Man(b1-4)GlcNAc(b1-4)GlcNAc
# How it was run: as §1
# [11] = target: Neu5Ac(a2-3)Gal(b1-3)GlcNAc(b1-2)[Neu5Ac(a2-3)Gal(b1-3)GlcNAc(b1-4)]Man(a1-6)[Neu5Ac(a2-3)Gal(b1-3)GlcNAc(b1-2)Man(a1-3)]Man(b1-4)GlcNAc(b1-4)GlcNAc
# How it was run: as §1
# [12] = target: Neu5Ac(a2-3)Gal(b1-3)GlcNAc(b1-3)Gal(b1-3)GlcNAc
# How it was run: as §1
# [13] = target: Neu5Ac(a2-3)Gal(b1-3)GlcNAc(b1-3)Gal(b1-4)GlcNAc
# How it was run: as §1
# [14] = target: Neu5Ac(a2-3)Gal(b1-3)GlcNAc(b1-3)GalNAc
# How it was run: as §1
# [15] = target: Neu5Ac(a2-3)Gal(b1-3)GlcNAc(b1-6)GalNAc
# How it was run: as §1
# [16] = target: Neu5Ac(a2-3)Gal(b1-3)GlcNAc6S
# How it was run: as §1
# [17] = target: Neu5Ac(a2-3)Gal(b1-3)[Fuc(a1-4)]GlcNAc
# How it was run: as §1
# [18] = target: Neu5Ac(a2-3)Gal(b1-3)[Fuc(a1-4)]GlcNAc(b1-3)Gal(b1-3)[Fuc(a1-4)]GlcNAc
# How it was run: as §1
# [19] = target: Neu5Ac(a2-3)Gal(b1-3)[Fuc(a1-4)]GlcNAc(b1-3)Gal(b1-4)[Fuc(a1-3)]GlcNAc
# How it was run: as §1
# [20] = target: Neu5Ac(a2-3)Gal(b1-3)[GlcNAc(b1-6)]GalNAc
# How it was run: as §1
# [21] = target: Neu5Ac(a2-3)Gal(b1-3)[Neu5Ac(a2-6)]GalNAc
# How it was run: as §1
# [22] = target: Neu5Ac(a2-3)Gal(b1-3)[Neu5Ac(a2-6)]GlcNAc(b1-3)[Fuc(a1-3)[Gal(b1-4)]GlcNAc(b1-6)]Gal(b1-4)Glc
# How it was run: as §1
# [23] = target: Neu5Ac(a2-3)Gal(b1-3)]Neu5Ac(a2-3)Gal(b1-4)]GlcNAc
# How it was run: as §1
# Neu5Ac(a2-3)Gal(b1-4)Glc = target: Neu5Ac(a2-3)Gal(b1-4)Glc
# How it was run: as §1
# [24] = target: Neu5Ac(a2-3)Gal(b1-4)GlcNAc
# How it was run: as §1
# [25] = target: Neu5Ac(a2-3)Gal(b1-4)GlcNAc(b1-2)Man
# How it was run: as §1
# [26] = target: Neu5Ac(a2-3)Gal(b1-4)GlcNAc(b1-2)Man(a1-3)[GlcNAc(b1-4)][Neu5Ac(a2-3)Gal(b1-4)GlcNAc(b1-2)Man(a1-6)]Man(b1-4)GlcNAc(b1-4)GlcNAc
# How it was run: as §1
# [27] = target: Neu5Ac(a2-3)Gal(b1-4)GlcNAc(b1-2)Man(a1-3)[Neu5Ac(a2-3)Gal(b1-4)GlcNAc(b1-2)Man(a1-6)]Man(b1-4)GlcNAc(b1-4)GlcNAc
# How it was run: as §1
# [28] = target: Neu5Ac(a2-3)Gal(b1-4)GlcNAc(b1-2)Man(a1-3)[Neu5Ac(a2-3)Gal(b1-4)GlcNAc(b1-2)Man(a1-6)]Man(b1-4)GlcNAc(b1-4)[Fuc(a1-6)]GlcNAc
# How it was run: as §1
# [29] = target: Neu5Ac(a2-3)Gal(b1-4)GlcNAc(b1-2)Man(a1-3)[Neu5Ac(a2-6)Gal(b1-4)GlcNAc(b1-2)Man(a1-6)]Man(b1-4)GlcNAc(b1-4)GlcNAc
# How it was run: as §1
# [30] = target: Neu5Ac(a2-3)Gal(b1-4)GlcNAc(b1-2)[Neu5Ac(a2-3)Gal(b1-4)GlcNAc(b1-4)]Man(a1-3)[GlcNAc(b1-4)][Neu5Ac(a2-3)Gal(b1-4)GlcNAc(b1-2)[Neu5Ac(a2-3)Gal(b1-4)GlcNAc(b1-6)]Man(a1-6)]Man(b1-4)GlcNAc(b1-4)GlcNAc
# How it was run: as §1
# [31] = target: Neu5Ac(a2-3)Gal(b1-4)GlcNAc(b1-2)[Neu5Ac(a2-3)Gal(b1-4)GlcNAc(b1-4)]Man(a1-3)[GlcNAc(b1-4)][Neu5Ac(a2-3)Gal(b1-4)GlcNAc(b1-4)Man(a1-6)]Man(b1-4)GlcNAc(b1-4)GlcNAc
# How it was run: as §1
# [32] = target: Neu5Ac(a2-3)Gal(b1-4)GlcNAc(b1-2)[Neu5Ac(a2-3)Gal(b1-4)GlcNAc(b1-6)]Man(a1-6)[Neu5Ac(a2-3)Gal(b1-4)GlcNAc(b1-2)Man(a1-3)][GlcNAc(b1-4)]Man(b1-4)GlcNAc(b1-4)GlcNAc
# How it was run: as §1
# [33] = target: Neu5Ac(a2-3)Gal(b1-4)GlcNAc(b1-3)Gal
# How it was run: as §1
# [34] = target: Neu5Ac(a2-3)Gal(b1-4)GlcNAc(b1-3)Gal(b1-3)GlcNAc
# How it was run: as §1
# [35] = target: Neu5Ac(a2-3)Gal(b1-4)GlcNAc(b1-3)Gal(b1-4)GlcNAc
# How it was run: as §1
# [36] = target: Neu5Ac(a2-3)Gal(b1-4)GlcNAc(b1-3)Gal(b1-4)GlcNAc(b1-2)Man(a1-3)[Neu5Ac(a2-3)Gal(b1-4)GlcNAc(b1-3)Gal(b1-4)GlcNAc(b1-2)Man(a1-6)]Man(b1-4)GlcNAc(b1-4)GlcNAc
# How it was run: as §1
# [37] = target: Neu5Ac(a2-3)Gal(b1-4)GlcNAc(b1-3)Gal(b1-4)GlcNAc(b1-3)Gal(b1-4)GlcNAc
# How it was run: as §1
# [38] = target: Neu5Ac(a2-3)Gal(b1-4)GlcNAc(b1-3)Gal(b1-4)GlcNAc(b1-3)Gal(b1-4)GlcNAc(b1-2)Man(a1-3)[Neu5Ac(a2-3)Gal(b1-4)GlcNAc(b1-3)Gal(b1-4)GlcNAc(b1-3)Gal(b1-4)GlcNAc(b1-2)Man(a1-6)]GalNAc
# How it was run: as §1
# [39] = target: Neu5Ac(a2-3)Gal(b1-4)GlcNAc(b1-3)Gal(b1-4)GlcNAc(b1-3)GalNAc
# How it was run: as §1
# [40] = target: Neu5Ac(a2-3)Gal(b1-4)GlcNAc(b1-3)Gal(b1-4)GlcNAc(b1-3)[Neu5Ac(a2-3)Gal(b1-4)GlcNAc(b1-3)Gal(b1-4)GlcNAc(b1-6)]GalNAc
# How it was run: as §1
# [41] = target: Neu5Ac(a2-3)Gal(b1-4)GlcNAc(b1-3)Gal(b1-4)GlcNAc(b1-6)[Gal(b1-3)]GalNAc
# How it was run: as §1
# [42] = target: Neu5Ac(a2-3)Gal(b1-4)GlcNAc(b1-3)Gal(b1-4)[Fuc(a1-3)]GlcNAc
# How it was run: as §1
# [43] = target: Neu5Ac(a2-3)Gal(b1-4)GlcNAc(b1-3)GalNAc
# How it was run: as §1
binder,measurement,setting,value
B1,glycan array binding signal (z-score),Neu5Ac(a2-3)Gal,-0.797
same,glycan array binding signal (z-score),[1],1.12
same,glycan array binding signal (z-score),[2],-0.636
same,glycan array binding signal (z-score),[3],-1.29
same,glycan array binding signal (z-score),[4],-0.509
same,glycan array binding signal (z-score),[5],-1.04
same,glycan array binding signal (z-score),[6],0.361
same,glycan array binding signal (z-score),[7],-0.322
same,glycan array binding signal (z-score),[8],0.891
same,glycan array binding signal (z-score),[9],-0.064
same,glycan array binding signal (z-score),[10],1.56
same,glycan array binding signal (z-score),[11],0.173
same,glycan array binding signal (z-score),[12],-1.33
same,glycan array binding signal (z-score),[13],0.189
same,glycan array binding signal (z-score),[14],-0.022
same,glycan array binding signal (z-score),[15],-0.811
same,glycan array binding signal (z-score),[16],-0.101
same,glycan array binding signal (z-score),[17],1.37
same,glycan array binding signal (z-score),[18],-0.938
same,glycan array binding signal (z-score),[19],-0.343
same,glycan array binding signal (z-score),[20],-1.47
same,glycan array binding signal (z-score),[21],0.385
same,glycan array binding signal (z-score),[22],-0.365
same,glycan array binding signal (z-score),[23],-0.364
same,glycan array binding signal (z-score),Neu5Ac(a2-3)Gal(b1-4)Glc,1.58
same,glycan array binding signal (z-score),[24],0.725
same,glycan array binding signal (z-score),[25],1.7
same,glycan array binding signal (z-score),[26],-0.155
same,glycan array binding signal (z-score),[27],0.155
same,glycan array binding signal (z-score),[28],0.021
same,glycan array binding signal (z-score),[29],-0.2
same,glycan array binding signal (z-score),[30],0.532
same,glycan array binding signal (z-score),[31],0.489
same,glycan array binding signal (z-score),[32],-1.57
same,glycan array binding signal (z-score),[33],-1.01
same,glycan array binding signal (z-score),[34],0.736
same,glycan array binding signal (z-score),[35],-1.44
same,glycan array binding signal (z-score),[36],-0.403
same,glycan array binding signal (z-score),[37],-0.612
same,glycan array binding signal (z-score),[38],1.63
same,glycan array binding signal (z-score),[39],3.41
same,glycan array binding signal (z-score),[40],0.67
same,glycan array binding signal (z-score),[41],0.566
same,glycan array binding signal (z-score),[42],-0.425
same,glycan array binding signal (z-score),[43],-0.349

# Two entries from above, bar-delimited:
binder | measurement | setting | value
B1 | glycan array binding signal (z-score) | [16] | -0.101
same | glycan array binding signal (z-score) | [23] | -0.364
